Results: the supplement of paper PMC11348887
Counter-ions that a name gives are not always drawn. Some of the results follow. Most values lie at the level of the controls, where differences are scatter.

Experiments:
Conditions in all cases: 5 µM; treatment: days 7-14 after plating, readout day 21
[1] = tested on: hPSC-derived cortical neurons (WA09); assay: nucleus area z-score vs screen plate; higher = larger nuclei (more mature)
[2] = tested on: hPSC-derived cortical neurons (WA09); assay: total neurite length per nucleus (MAP2) z-score; higher = more neurite growth
[3] = tested on: hPSC-derived cortical neurons (WA09); assay: nucleus roundness z-score vs screen plate; higher = rounder nuclei (more mature)
[4] = tested on: hPSC-derived cortical neurons (WA09); assay: KCl-induced FOS+/EGR-1+ double-positive nuclei fraction z-score (KCl minus unstimulated); higher = stronger activity-induced IEG response

Row | SMILES | nucleus area z-score [1] | total neurite length per nucleus (z-score) [2] | nucleus roundness z-score [3] | KCl-induced FOS+/EGR-1+ double-positive nuclei fraction z-score [4]
1 | O=C(O)CCCCC(CCSCc1ccccc1)SCc1ccccc1 (stereo not given) | 0.428 | 0.152 | 0.357 | -0.0465
2 | O=C1CCc2ccc(OCCCCN3CCN(c4cccc(Cl)c4Cl)CC3)cc2N1 [Aripiprazole] | 1.09 | 0.0809 | 0.00313 | -0.485
3 | CC(C)(S)[C@@H](N)C(=O)O [Penicillamine] | -0.0897 | 0.349 | 0.332 | 2.71
4 | Cc1ncc(C[n+]2csc(CCO)c2C)c(N)n1 [Thiamine HCl (Vitamin B1)] | 0.29 | 0.237 | 0.594 | -0.626
5 | O=C(Nc1cccc(Cl)c1)Nc1ncc(CCNc2ncnc3ccsc23)s1 [SNS-314 Mesylate] | 0.224 | 0.339 | 0.32 | -0.214
6 | CN(CCOc1ccc(CC2SC(=O)NC2=O)cc1)c1ccccn1 (stereo not given) [Rosiglitazone HCl] | 0.858 | -1.41 | -0.724 | -0.151
7 | NC(=O)c1ccc[n+]([C@@H]2O[C@H](COP(=O)([O-])OP(=O)(O)OC[C@H]3O[C@@H](n4cnc5c(N)ncnc54)[C@H](O)[C@@H]3O)[C@@H](O)[C@H]2O)c1 | -0.947 | -0.124 | -0.384 | 0.114
8 | CCNC(=O)Nc1ccc(-c2nc3c(c(N4CCOC[C@@H]4C)n2)CCN(C2COC2)C3)cc1 | -4.28 | -1.61 | -5.56 | -1.03
9 | C[N+](C)(CCOc1ccccc1)Cc1ccccc1.O=C([O-])c1cc2ccccc2cc1O [Bephenium Hydroxynaphthoate] | 0.545 | -0.0163 | 0.505 | 0.0297
10 | CC[C@H]1OC(=O)[C@H](C)[C@@H](O[C@H]2C[C@@](C)(OC)[C@@H](O)[C@H](C)O2)[C@H](C)[C@@H](O[C@@H]2O[C@H](C)C[C@H](N(C)C)[C@H]2O)[C@](C)(O)C[C@@H](C)CN(C)[C@H](C)[C@@H](O)[C@]1(C)O [Azithromycin Dihydrate] | -0.604 | -0.788 | -0.346 | -1.12

Another view of some results above:
Row	SMILES	nucleus area z-score [1]	total neurite length per nucleus (z-score) [2]	nucleus roundness z-score [3]	KCl-induced FOS+/EGR-1+ double-positive nuclei fraction z-score [4]
9	C[N+](C)(CCOc1ccccc1)Cc1ccccc1.O=C([O-])c1cc2ccccc2cc1O [Bephenium Hydroxynaphthoate]	0.545	-0.0163	0.505	0.0297
10	CC[C@H]1OC(=O)[C@H](C)[C@@H](O[C@H]2C[C@@](C)(OC)[C@@H](O)[C@H](C)O2)[C@H](C)[C@@H](O[C@@H]2O[C@H](C)C[C@H](N(C)C)[C@H]2O)[C@](C)(O)C[C@@H](C)CN(C)[C@H](C)[C@@H](O)[C@]1(C)O [Azithromycin Dihydrate]	-0.604	-0.788	-0.346	-1.12
